Test results from patent US4223016A (Beecham Group Limited, priority 1977, dated 1980).
Where no end group is shown, it is not given here.

Experiment: general procedure: hybrid (solid and solution phase) peptide synthesis; 0.47 mM/g glycine substituted Merrifield Resin; DCCI
Details: coupling step

Substance	step yield
BOC.Lys(Z)Thr(Bzl)Lys(Z)GlySer(Bzl)GlyPhePheOBz	85%
BOC.Ser(Bzl)GlyPhePheOMe	67%
ZProArg(NO2)Lys(Z)Thr(Bzl)Lys(Z)GlySer(Bzl)GlyPhePheOMe	88%
BOC.Ser(Bzl)GlyPhePheValPheOMe	93%
BOC.Ser(Bzl)PhePheOBz	72%
BOC.Lys(Z)Thr(Bzl)Lys(Z)GlySer(Bzl)GlyPhePheOMe	50%
ZProArg(NO2)Lys(Z)Thr(Bzl)Lys(Z)GlyOMe	54%
ZLys(Z)Thr(Bzl)Lys(Z)GlyOMe	50%
BOC.Ser(Bzl)GlyPhePheValPheOBz	91%
BOC.Arg(NO2)Lys(Z)Thr(Bzl)Lys(Z)GlyOMe	71%
Z.Arg(Z)2 Lys(Z)Thr(Bzl)Lys(Z)GlySer(Bzl)GlyPhePheOMe	78%
ZLys(Z)Thr(Bzl)Lys(Z)GlySer(Bzl)GlyPhePheValPheOBz	85%
BOC.PhePheValPheOMe	80%
BOC.Lys(Z)Thr(Bzl)Lys(Z)GlySer(Bzl)GlyPhePheValPheOMe	61%

Same assay, conditions: coupling step; run 1

Substance	step yield
BOC.Lys(Z)Thr(Bzl)Lys(Z)GlyOMe	84%

Same assay, conditions: coupling step; run 2

Substance	step yield
BOC.Lys(Z)Thr(Bzl)Lys(Z)GlyOMe	74%

Same assay, conditions: late stage modification step

Substance	step yield
Lys(Z)Thr(Bzl)Lys(Z)GlySer(Bzl)GlyPhePheOMe.HCl	52%
KTKGSGFFVF-OH	23%
Arg(NO2)Lys(Z)Thr(Bzl)Lys(Z)GlyOMe.HCl	92%
ZProArg(NO2)Lys(Z)Thr(Bzl)Lys(Z)GlyOH	50%
Ser(Bzl)GlyPhePheOMe.HCl (II)	96%
Ser(Bzl)GlyPhePheValPheOBz.HCl	94%
BOC.Lys(Z)Thr(Bzl)Lys(Z)GlyOSu	15%
KTKGSGFF-OMe	46%
RKTKGSGFF-OMe	26%
ZLys(Z)Thr(Bzl)Lys(Z)GlyOH	49%
PRKTKGSGFF-OMe	34%
